Source: the supplement of paper PMC7666118
The other results are listed elsewhere or left out.

Chains of the proteins cited; added tags and fusions are not shown. Lines headed by an entry give the natural chain unless they say otherwise; changes in a name come on top.
UniProt Q9NX46: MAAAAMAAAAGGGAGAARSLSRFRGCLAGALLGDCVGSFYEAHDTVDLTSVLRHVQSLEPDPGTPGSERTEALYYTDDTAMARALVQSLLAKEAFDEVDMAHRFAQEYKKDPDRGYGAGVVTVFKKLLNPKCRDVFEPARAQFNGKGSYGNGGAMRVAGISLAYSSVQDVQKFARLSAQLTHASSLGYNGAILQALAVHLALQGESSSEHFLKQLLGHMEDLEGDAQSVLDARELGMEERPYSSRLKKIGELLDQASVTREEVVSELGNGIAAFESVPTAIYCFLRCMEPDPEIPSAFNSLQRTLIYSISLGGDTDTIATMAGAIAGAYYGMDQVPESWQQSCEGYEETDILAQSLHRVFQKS
UniProt O14672: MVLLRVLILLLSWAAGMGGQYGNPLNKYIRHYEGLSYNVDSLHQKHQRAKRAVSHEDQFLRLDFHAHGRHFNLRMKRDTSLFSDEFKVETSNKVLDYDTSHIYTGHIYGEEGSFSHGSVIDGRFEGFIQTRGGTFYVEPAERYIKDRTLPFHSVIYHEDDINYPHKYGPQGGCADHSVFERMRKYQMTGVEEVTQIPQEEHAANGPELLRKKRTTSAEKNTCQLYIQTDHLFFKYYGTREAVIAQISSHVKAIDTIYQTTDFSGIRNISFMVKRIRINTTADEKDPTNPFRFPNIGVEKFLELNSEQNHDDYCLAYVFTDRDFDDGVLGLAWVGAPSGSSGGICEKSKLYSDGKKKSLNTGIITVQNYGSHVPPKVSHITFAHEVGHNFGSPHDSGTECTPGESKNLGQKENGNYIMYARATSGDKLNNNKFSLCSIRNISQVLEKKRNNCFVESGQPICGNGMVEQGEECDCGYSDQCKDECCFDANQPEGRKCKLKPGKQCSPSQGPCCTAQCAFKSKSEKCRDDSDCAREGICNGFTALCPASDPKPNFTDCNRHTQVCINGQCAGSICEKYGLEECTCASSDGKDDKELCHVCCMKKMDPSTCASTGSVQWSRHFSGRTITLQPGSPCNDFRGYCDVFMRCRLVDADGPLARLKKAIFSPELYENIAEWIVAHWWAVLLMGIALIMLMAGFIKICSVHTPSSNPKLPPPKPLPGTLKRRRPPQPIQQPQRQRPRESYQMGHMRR
UniProt Q96A54: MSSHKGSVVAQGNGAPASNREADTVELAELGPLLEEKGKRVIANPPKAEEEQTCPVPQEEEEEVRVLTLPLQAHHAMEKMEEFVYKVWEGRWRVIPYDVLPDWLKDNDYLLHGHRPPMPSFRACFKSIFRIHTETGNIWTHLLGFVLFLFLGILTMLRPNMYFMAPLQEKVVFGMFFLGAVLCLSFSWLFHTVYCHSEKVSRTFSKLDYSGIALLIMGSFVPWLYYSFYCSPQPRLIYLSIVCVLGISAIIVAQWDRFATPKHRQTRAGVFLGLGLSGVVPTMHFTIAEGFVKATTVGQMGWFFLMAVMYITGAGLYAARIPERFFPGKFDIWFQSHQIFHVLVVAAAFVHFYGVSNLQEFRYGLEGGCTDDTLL
UniProt Q53FZ2: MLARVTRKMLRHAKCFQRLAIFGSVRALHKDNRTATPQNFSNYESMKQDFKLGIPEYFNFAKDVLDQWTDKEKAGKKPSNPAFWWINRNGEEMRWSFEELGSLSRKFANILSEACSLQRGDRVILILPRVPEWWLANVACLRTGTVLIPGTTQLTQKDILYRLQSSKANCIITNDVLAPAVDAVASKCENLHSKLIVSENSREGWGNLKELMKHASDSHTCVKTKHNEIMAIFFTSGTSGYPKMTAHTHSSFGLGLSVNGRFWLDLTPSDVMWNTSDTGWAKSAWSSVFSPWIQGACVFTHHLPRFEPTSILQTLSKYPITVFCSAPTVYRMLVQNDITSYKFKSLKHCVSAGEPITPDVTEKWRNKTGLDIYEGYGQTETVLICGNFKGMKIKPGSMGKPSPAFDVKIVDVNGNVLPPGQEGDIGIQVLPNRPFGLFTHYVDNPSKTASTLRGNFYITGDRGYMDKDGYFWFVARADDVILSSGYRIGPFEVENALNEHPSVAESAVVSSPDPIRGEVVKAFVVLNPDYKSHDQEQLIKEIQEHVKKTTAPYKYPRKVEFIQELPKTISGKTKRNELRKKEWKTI
UniProt O60488: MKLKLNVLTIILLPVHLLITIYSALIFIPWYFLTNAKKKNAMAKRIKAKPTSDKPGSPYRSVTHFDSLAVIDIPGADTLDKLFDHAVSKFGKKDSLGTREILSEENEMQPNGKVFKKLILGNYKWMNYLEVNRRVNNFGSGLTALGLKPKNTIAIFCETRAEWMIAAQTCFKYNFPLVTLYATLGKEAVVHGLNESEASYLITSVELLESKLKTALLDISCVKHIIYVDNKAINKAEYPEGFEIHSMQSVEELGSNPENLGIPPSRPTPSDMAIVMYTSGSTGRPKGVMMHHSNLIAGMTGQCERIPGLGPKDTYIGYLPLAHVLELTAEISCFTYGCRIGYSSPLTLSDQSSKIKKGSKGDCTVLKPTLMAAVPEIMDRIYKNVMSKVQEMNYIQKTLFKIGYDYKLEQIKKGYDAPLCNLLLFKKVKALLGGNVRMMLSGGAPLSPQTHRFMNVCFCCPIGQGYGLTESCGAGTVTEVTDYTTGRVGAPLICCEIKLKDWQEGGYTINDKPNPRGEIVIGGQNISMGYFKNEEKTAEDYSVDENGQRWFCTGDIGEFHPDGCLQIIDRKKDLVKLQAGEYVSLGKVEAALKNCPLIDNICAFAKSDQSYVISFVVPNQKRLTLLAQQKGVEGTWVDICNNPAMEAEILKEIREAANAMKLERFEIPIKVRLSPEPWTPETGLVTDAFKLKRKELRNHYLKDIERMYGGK
UniProt Q9NRP4: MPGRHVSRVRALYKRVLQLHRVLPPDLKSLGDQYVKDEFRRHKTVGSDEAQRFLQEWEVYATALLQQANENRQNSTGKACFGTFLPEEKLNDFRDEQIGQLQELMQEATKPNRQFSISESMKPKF
UniProt P78536: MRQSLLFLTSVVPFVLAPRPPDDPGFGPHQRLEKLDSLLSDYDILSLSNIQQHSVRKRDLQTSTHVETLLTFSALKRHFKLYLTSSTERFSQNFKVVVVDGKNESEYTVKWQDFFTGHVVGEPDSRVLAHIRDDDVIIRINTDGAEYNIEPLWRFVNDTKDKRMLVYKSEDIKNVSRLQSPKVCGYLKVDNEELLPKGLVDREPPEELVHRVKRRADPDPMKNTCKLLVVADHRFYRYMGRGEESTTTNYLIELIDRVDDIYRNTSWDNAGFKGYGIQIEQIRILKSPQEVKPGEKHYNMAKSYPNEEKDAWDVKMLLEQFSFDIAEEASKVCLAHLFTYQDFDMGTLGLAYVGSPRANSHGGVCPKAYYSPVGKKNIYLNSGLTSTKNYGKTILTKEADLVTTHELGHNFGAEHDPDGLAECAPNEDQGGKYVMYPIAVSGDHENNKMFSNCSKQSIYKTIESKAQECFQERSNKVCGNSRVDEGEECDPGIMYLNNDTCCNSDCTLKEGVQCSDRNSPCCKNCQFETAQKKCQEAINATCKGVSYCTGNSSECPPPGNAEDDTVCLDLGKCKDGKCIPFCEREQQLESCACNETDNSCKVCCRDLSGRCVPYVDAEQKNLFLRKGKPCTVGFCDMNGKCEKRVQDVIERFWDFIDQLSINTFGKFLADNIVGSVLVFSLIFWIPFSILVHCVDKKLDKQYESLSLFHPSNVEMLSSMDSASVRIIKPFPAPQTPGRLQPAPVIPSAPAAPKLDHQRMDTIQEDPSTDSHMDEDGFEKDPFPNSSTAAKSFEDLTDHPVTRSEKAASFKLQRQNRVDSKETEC
UniProt Q9H981, whole entry: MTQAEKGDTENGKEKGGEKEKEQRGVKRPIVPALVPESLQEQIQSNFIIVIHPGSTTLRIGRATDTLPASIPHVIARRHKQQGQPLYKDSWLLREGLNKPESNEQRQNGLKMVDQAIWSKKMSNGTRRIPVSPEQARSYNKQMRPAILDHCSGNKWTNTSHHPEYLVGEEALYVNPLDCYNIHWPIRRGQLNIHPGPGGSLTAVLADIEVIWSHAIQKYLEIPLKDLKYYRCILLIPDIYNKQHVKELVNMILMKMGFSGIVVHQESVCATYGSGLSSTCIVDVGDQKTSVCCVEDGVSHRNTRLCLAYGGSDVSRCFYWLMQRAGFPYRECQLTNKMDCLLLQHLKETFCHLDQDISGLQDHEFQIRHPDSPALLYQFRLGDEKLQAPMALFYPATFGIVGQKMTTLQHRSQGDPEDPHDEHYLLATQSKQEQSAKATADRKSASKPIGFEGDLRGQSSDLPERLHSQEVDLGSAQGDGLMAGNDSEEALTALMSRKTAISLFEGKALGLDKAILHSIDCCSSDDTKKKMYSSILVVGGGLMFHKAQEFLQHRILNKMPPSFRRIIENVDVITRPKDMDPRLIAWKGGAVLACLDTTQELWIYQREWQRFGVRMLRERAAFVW
UniProt Q8WXI4: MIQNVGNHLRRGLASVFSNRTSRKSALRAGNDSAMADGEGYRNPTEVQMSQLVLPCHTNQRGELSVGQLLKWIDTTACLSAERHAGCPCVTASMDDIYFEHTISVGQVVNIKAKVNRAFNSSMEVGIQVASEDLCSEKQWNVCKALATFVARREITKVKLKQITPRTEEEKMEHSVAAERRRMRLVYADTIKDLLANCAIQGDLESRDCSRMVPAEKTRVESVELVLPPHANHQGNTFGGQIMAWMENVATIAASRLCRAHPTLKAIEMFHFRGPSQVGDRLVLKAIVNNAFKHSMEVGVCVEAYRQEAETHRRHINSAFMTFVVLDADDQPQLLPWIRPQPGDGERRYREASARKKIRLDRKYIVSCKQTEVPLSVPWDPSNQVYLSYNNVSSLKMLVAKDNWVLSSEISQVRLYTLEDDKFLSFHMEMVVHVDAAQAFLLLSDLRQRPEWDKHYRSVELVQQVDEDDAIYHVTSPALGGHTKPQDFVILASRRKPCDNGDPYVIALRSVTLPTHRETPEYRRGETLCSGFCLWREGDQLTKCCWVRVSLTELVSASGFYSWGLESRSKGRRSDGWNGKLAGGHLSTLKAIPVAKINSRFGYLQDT
UniProt Q9NUJ1: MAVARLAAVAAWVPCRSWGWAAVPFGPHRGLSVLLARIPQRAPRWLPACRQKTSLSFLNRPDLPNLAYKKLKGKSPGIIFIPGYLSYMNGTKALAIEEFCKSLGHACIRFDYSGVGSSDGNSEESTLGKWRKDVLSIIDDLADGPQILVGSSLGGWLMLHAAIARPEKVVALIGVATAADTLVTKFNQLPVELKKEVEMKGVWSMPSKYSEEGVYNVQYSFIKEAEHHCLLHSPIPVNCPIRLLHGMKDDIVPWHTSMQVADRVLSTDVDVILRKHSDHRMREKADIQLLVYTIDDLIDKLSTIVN
UniProt P61163, whole entry: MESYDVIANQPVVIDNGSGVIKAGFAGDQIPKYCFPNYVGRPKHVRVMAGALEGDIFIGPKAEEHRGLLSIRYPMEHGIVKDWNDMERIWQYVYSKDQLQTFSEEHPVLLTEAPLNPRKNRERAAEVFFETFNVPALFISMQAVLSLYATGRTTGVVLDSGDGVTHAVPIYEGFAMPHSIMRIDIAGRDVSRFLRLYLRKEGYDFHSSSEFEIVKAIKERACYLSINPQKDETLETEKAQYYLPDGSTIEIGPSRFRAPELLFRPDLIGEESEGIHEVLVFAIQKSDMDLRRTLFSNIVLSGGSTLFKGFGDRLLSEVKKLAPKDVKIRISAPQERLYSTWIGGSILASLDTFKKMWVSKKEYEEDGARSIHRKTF
UniProt P42025, whole entry: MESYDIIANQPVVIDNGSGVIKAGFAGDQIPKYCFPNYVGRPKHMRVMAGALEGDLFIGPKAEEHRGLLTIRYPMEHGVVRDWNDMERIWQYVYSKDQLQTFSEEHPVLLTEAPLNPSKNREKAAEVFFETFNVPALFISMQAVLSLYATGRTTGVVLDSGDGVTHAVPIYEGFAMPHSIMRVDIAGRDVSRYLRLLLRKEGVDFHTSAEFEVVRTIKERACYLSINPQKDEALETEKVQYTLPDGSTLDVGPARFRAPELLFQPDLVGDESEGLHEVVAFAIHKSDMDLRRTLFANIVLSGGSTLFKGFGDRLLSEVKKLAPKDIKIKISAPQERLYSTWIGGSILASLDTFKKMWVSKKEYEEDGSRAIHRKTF
UniProt Q9BRR6: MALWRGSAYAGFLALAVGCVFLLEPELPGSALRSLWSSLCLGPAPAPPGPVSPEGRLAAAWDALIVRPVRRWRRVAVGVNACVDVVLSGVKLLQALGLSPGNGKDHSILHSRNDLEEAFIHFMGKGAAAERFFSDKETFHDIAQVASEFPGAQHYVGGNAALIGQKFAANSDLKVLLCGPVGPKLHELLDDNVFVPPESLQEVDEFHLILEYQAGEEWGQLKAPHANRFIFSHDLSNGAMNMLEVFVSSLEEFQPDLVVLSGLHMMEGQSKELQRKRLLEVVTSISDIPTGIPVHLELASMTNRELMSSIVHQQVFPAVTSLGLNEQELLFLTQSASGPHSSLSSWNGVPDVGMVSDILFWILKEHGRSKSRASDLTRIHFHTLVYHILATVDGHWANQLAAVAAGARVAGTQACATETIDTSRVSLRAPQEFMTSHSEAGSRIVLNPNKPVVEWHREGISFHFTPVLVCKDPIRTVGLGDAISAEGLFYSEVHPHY

Compound: COc1ccc(Cn2ccc3cc(C)c(C(=O)NO)cc32)cc1
Experiment: dose-dependent thermal stabilisation call (2D-TPP, DLPTP, 10% FDR) (binary (1 = stabilised)); higher = stabilised by the compound
Details: system: HL-60 intact cells; concentration range 0.04-10 µM
Procedure: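 2D thermal proteome profiling in intact HL-60 cells treated with BRD-3811 (0, 0.04, 0.29, 2, 10 uM) for 90 min at 37 C, then heated 3 min at one of 12 temperatures (42-63.9 C). Soluble protein was quantified by TMT10 MS. The value is the DLPTP call of the paper: dose-dependent thermal stabilisation over all temperatures at 10% FDR (F-test of a dose-response against a flat model); one experiment, one call per tested protein.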

Target	dose-dependent thermal stabilisation call
ADAM9 (UniProt Q13443)	inactive: 0
ACOT9 (UniProt Q9Y305)	inactive: 0
ACPP (UniProt P15309)	inactive: 0
ADPRHL2 (UniProt Q9NX46)	inactive: 0
ADAM10 (UniProt O14672)	inactive: 0
ADIPOR1 (UniProt Q96A54)	inactive: 0
ACSM3 (UniProt Q53FZ2)	inactive: 0
ADAM15 (UniProt Q13444)	inactive: 0
ACOT8 (UniProt O14734)	inactive: 0
ACSL3 (UniProt O95573)	inactive: 0
ACBD3 (UniProt Q9H3P7)	inactive: 0
ACAP1 (UniProt Q15027)	inactive: 0
ACAD10 (UniProt Q6JQN1)	inactive: 0
ABCB7 (UniProt O75027)	inactive: 0
ABR (UniProt Q12979)	inactive: 0
ACSL4 (UniProt O60488)	inactive: 0
AATF (UniProt Q9NY61)	inactive: 0
ACN9 (UniProt Q9NRP4)	inactive: 0
ACTR6 (UniProt Q9GZN1)	inactive: 0
ACCN2 (UniProt P78348)	inactive: 0

Given field by field: part of the list above
ADAM10 (UniProt O14672)
  dose-dependent thermal stabilisation call: inactive: 0
ADIPOR1 (UniProt Q96A54)
  dose-dependent thermal stabilisation call: inactive: 0
ACSM3 (UniProt Q53FZ2)
  dose-dependent thermal stabilisation call: inactive: 0

Going on with the list.

Target	dose-dependent thermal stabilisation call
ABCD4 (UniProt O14678)	inactive: 0
ACAT2 (UniProt Q9BWD1)	inactive: 0
ACO2 (UniProt Q99798)	inactive: 0
ADAM17 (UniProt P78536)	inactive: 0
ADRBK1 (UniProt P25098)	inactive: 0
ACTR8 (UniProt Q9H981)	inactive: 0
ACOT11 (UniProt Q8WXI4)	inactive: 0
AASDH (UniProt Q4L235)	inactive: 0
ACAD11 (UniProt Q709F0)	inactive: 0
ACADVL (UniProt P49748)	inactive: 0
ABHD10 (UniProt Q9NUJ1)	inactive: 0
ABCE1 (UniProt P61221)	inactive: 0
ACTR3 (UniProt P61158)	inactive: 0
ABI1 (UniProt Q8IZP0)	inactive: 0
ACTR1A (UniProt P61163)	inactive: 0
ACTR1B (UniProt P42025)	inactive: 0
ACTB (UniProt P60709)	inactive: 0
ACTN4 (UniProt O43707)	inactive: 0
ABCD1 (UniProt P33897)	inactive: 0
ADPGK (UniProt Q9BRR6)	inactive: 0
